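Genome-wide siRNA knockdown in TC32 Ewing sarcoma cells, comparing luciferase light from an NR0B1-promoter reporter with a CMV-promoter reporter 48 hours after transfection. Each siRNA was applied at 20 nM. A z-score of the log NR0B1-over-CMV signal, less the median of siRNAs with the same seed; more negative means a stronger specific loss of the NR0B1 reporter.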

The strongest results of the screen are mostly left out here. Sequences are the guide (antisense) strand, without overhang.

strand	target gene	seed-corrected z-score
UGACUUGUAGUGAUGGGUG	WDR81	-0.3268
AAUGCUAUUGAGGUAUUCC	SMARCA4	-1.641
AUACCUAUAUGACUCAUAG	IFT88	-0.2095
UCCCGUGUCUCGAUGGUCU	DES	-0.4592
UAGGGUAUAUUCAAAGUUG	GRHL1	0.108
UUCUUCAUGAGAAACCCUG	KIAA0754	0.04132
AACCGUUCAAAUUUCUCAC	PIK3CD	0.211
UAUGCUAGAAUCUGUAAGG	TM4SF18	0.744
UAUGGUACUUGAUUUUACC	TIGD2	-0.2973
AUAUACUUAAUAUGCAGCC	NIPAL1	-0.3844
UUCGGGAUUACAGGAAGCU	CCDC86	1.35
UCCGUGUCAGACAAAUUCC	C19orf44	0.09253
AACUGAAAUGCAGCACUGG	KRTAP5-6	-0.935
UCAGCUGUUAUAAGGCUGG	NR2E3	-0.1168
UUCAGUUAGGCCUAGUUUC	CASQ1	0.8722
UAGCCGUUAGGUUCUCUAC	SPAG5	0.6216
UCUAAUACAAUCUGGAUCG	VPS25	0.1421
UUGUCGAUCAUCUUAGAGC	GNAI2	-1.146
UGUUAUUAGAGUUAGUUGC	B3GALT2	0.513
UAAGAAGUCACGUCCAUUU	DEDD	-0.5033
UCCAUGACCAAAUAUAUCC	CPA3	-0.4247
UACGCAGCAACUCGGAAUC	PLCD4	-0.2159
UCUGGUAACUUUAAUGUAU	MRPL9	-0.0574
UUAAUGUGCAGUGACUCCU	ZNF205	0.9063
UCAGUAGGUAUGUUCAGGG	BRS3	-1.325
UGAGUAAUCCUUCACUACC	WDR36	0.08834
UUUGCUUCGGUUAAUAGCC	TSPAN31	-0.3507
UCAGUUGCAAGGUGUCUGC	FOXI3	-0.3235
ACUUGAGCUACAAAUUUCC	CHRNB3	-0.7041
UAAGAGUAUAUUUCCGACC	OR5AS1	0.3116
ACAGACAUAGGCAAAGUCC	TFAP2C	0.845
UGCUGUUCUCUAGACAUCG	LAMB1	-1.298
AGAUUUGAGAGGAUUAUCC	C15orf54	1.579
UGUUGAACCAUCGCAUUUC	TMEM159	0.08437
UCCCUUCGAAAGAUCAUGC	CSNK2A2	0.03049
UCAGUUCCGCCUGUAGCUC	CNPY4	0.8973
UUUCUUAGUACAGUCAUCC	ZNF554	0.3746
UCGUCGAUCUUGUCAAUGU	IRX1	0.1593
UGGGAUGGAAACUUGGUGC	FAM212B	1.253
UCCGUAGUAAACUGGAUGC	LRFN5	0.7254
UCUACUUCAAUUAUCUCCU	RPS17P16	-0.1999
AUAGCAUAAGUUUUAAACU	RPS21	3.057

Repeated from the top, 5 entries:

strand	target gene	seed-corrected z-score
UGACUUGUAGUGAUGGGUG	WDR81	-0.3268
AAUGCUAUUGAGGUAUUCC	SMARCA4	-1.641
AUACCUAUAUGACUCAUAG	IFT88	-0.2095
UCCCGUGUCUCGAUGGUCU	DES	-0.4592
UAGGGUAUAUUCAAAGUUG	GRHL1	0.108

From PubChem BioAssay record AID1159506 (NCATS, 2015).